In patent US7887784B2, “1-[(2′-substituted)-piperazin-1′ -yl]-isoquinolines as norepinephrine transporter inhibitor therapeutics and positron emission tomography imaging agents” (University of Montana, priority 2007, dated 2011):
At least one compound was matched to its structure with a doubt left.

Target: β-Adrenergic
Experiment: β-Adrenergic receptor competitive binding, [125I]Iodopindalol
Conditions: partially purified rat protein, nonspecific Alprenolol, 37° C., 1 h, read-out: Ki of (±)-14, β-Adrenergic

For `COCC1CNCCN1c1nccc2ccccc12` (racemic) [(±)-14, (±)-1-[2′-(Methoxymethyl)piperazin-1′-yl] isoquinoline], the Ki was 240 µM.
